In article PMC7288428, “Amaryllidaceae alkaloids with anti-Trypanosoma cruzi activity” (Parasites & Vectors, 2020):

What was measured:
HepG2 cells = assay: HepG2 cell toxicity assay (Alamar Blue); conditions: TC50 (HepG2) to IC50 (anti-T. cruzi) ratio
Vero cells = assay: Vero cell toxicity assay (Alamar Blue); conditions: TC50 (Vero) to IC50 (anti-T. cruzi) ratio
[1] = tested on: T. cruzi intracellular amastigote forms; assay: Anti-amastigote specific activity assay (Vero host cells); type: cell-based, Trypanosoma cruzi

## O=C(Cn1ccnc1[N+](=O)[O-])NCc1ccccc1 [BNZ, benznidazole, reference compound]
HepG2 cells
  SI, HepG2 cell toxicity assay: 108.18
Vero cells
  SI, Vero cell toxicity assay: 111.15

## CO[C@H]1C=C2[C@H]3C[N@@](Cc4cc5c(cc43)OCO5)[C@H]2C[C@@H]1O [Montanine, montanine]
HepG2 cells
  SI, HepG2 cell toxicity assay: 23.17
Vero cells
  SI, Vero cell toxicity assay: 2.53

## CN1CCC2=C[C@H](O)[C@H]3OC(=O)c4cc5c(cc4[C@H]3[C@@H]21)OCO5 [Hippeastrine, hippeastrine]
HepG2 cells
  SI, HepG2 cell toxicity assay: 35.29
[1]; TC50 (HepG2) to anti-amastigote IC50 ratio
  SI with respect to anti-amastigote activity, against HepG2 cells: 38.69
[1]; TC50 (Vero) to anti-amastigote IC50 ratio
  SI with respect to anti-amastigote activity, against Vero cells: 13.89
Vero cells
  SI, Vero cell toxicity assay: 12.67
Vero cells; listed as hippeastrine
  SI, Vero cell toxicity assay: 12.7

## O=C1N[C@@H]2C(=C[C@H](O)[C@@H](O)[C@H]2O)c2cc3c(c(O)c21)OCO3 [Narciclasine, narciclasine]
HepG2 cells
  SI, HepG2 cell toxicity assay: 5.52
HepG2 cells; listed as narciclasine
  SI, HepG2 cell toxicity assay: < 10
Vero cells
  SI, Vero cell toxicity assay: 1.33
Vero cells; listed as narciclasine
  SI, Vero cell toxicity assay: < 10

## O[C@H]1[C@H]2c3cc4c(cc3CN3CCC(=C[C@@H]1O)[C@H]23)OCO4 [Lycorine, lycorine]
HepG2 cells
  SI, HepG2 cell toxicity assay: 31.24
Vero cells
  SI, Vero cell toxicity assay: 7.44
Vero cells; listed as lycorine
  SI, Vero cell toxicity assay: < 10

## COC1C=CC23c4cc5c(cc4CN(CC2O)C3C1)OCO5 (centres unmarked) [Haemanthamine, haemanthamine]
Vero cells
  SI, Vero cell toxicity assay: 7.25
